Experimental findings from PMC9514642 are described below.

Amino acid sequences for entries named in this document (tags omitted).
UniProt P35579: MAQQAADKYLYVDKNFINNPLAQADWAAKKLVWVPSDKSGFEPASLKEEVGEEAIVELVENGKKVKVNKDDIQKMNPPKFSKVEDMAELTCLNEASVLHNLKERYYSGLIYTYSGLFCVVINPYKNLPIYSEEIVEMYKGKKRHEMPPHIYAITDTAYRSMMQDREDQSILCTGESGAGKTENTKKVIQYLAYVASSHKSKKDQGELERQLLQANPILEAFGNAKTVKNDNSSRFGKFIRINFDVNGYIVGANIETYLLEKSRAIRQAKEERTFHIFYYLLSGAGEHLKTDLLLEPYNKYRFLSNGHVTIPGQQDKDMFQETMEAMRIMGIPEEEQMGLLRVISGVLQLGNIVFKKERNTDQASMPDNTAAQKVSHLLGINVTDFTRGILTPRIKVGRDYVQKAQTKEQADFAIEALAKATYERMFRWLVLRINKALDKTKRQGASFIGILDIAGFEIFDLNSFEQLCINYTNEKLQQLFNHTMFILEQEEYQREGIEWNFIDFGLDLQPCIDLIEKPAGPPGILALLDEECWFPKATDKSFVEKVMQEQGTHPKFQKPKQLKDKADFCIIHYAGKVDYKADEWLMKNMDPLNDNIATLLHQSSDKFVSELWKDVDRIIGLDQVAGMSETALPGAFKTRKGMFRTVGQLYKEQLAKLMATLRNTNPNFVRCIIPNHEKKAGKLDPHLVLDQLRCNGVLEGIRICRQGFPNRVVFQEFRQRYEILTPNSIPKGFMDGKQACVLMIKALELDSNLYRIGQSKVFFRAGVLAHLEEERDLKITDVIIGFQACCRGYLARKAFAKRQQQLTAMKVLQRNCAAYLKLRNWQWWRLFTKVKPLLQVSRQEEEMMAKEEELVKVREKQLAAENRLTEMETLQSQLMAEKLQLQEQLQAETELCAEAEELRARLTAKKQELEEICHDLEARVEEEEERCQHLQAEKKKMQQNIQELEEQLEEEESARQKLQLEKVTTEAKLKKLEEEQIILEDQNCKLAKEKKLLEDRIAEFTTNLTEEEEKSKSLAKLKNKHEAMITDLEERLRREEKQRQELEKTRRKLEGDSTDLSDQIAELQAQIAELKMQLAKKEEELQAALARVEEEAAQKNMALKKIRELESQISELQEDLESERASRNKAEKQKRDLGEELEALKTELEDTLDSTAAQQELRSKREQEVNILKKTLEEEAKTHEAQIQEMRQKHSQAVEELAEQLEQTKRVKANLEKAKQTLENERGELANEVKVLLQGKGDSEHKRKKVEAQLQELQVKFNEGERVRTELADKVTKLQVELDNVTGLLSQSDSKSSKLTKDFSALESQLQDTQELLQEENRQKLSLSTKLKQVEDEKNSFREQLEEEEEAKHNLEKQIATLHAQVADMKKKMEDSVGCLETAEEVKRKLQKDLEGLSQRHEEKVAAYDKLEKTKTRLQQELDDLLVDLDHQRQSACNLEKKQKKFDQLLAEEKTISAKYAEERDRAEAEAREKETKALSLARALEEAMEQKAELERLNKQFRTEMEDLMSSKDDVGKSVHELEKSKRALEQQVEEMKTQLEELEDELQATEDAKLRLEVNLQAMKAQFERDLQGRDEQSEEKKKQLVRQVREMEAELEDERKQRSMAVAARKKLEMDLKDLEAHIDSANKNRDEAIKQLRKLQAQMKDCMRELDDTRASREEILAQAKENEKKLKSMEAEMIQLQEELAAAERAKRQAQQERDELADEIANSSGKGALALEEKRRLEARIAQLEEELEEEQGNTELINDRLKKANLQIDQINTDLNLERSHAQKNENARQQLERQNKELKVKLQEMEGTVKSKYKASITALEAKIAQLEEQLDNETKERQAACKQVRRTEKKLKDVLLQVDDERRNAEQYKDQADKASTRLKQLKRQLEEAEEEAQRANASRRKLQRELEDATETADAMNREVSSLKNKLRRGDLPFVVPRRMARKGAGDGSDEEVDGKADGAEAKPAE

These are yes or no findings as the source states them, for the method shown. Binding seen in cells or lysates may run through a third protein. Some binding calls cover weakened binding; strength is not graded here.

This assay has as its target non-muscle myosin heavy chain IIA (NMHC IIA), human (human (endogenous in blood neutrophils)) (UniProt P35579). Put plainly: co-IP; anti-NMHC IIA antibody cross-linked to resin, lysates of human blood neutrophils after GM-CSF stimulation; immunoblot for RHOH; overnight at 4°C.

B1: RHOH, human (protein, UniProt Q15669 1-191)
chain: MLSSIKCVLVGDSAVGKTSLLVRFTSETFPEAYKPTVYENTGVDVFMDGIQISLGLWDTAGNDAFRSIRPLSYQQADVVLMCYSVANHNSFLNLKNKWIGEIRSNLPCTPVLVVATQTDQREMGPHRASCVNAMEGKKLAQDVRAKGYLECSALSNRGVQQVFECAVRTAVNQARRRNRRRLFSINECKIF
On to B1, for which the binding result is “binds”.
